Some of these results come from one statement about several compounds together. Blank lines part the entries; values can stand above or below the compound they belong to.
How the values were obtained:
Assay type in all cases: cell-based
Settings in all cases: H1975 cells (wild-type SMARCA4), 0.001-10 μm
SMARCA2 = SMARCA2 (Homo sapiens, UniProt P51531); assay: SMARCA2 degradation in cell lines, western blot
Method: Cell lines with wild-type SMARCA4 (H1975, H1792, H2122, and H441) were treated with DMSO or 0.001, 0.01, 0.1, 1, or 10 μm of ACBI1 (degrader of SMARCA2, SMARCA4 and polybromo-associated BAF complex PBRM1) or Compound 101 and expression levels of SMARCA2 (FIG. 2A) and SMARCA4 (FIG. 2B) were detected by western blot.
(§1) Cell lines with wild-type SMARCA4 (H1792) and mutant SMARCA4 (H1299) were treated for 72 h or 96 h with DMSO or 0.001, 0.01, 0.1, 1, or 10 μm Compound 103 and analyzed by western blot for SMARCA2, SMARCA4, and PBRM1 expression (FIGS. 4A, 4B, and 4C).
(§2) Cell lines with wild-type SMARCA4 (H1792) and mutant SMARCA4 (H1299) were treated for 72 h or 96 h with DMSO or 0.001, 0.01, 0.1, 1, or 10 μm Compound 102 and analyzed by western blot for SMARCA2, SMARCA4, and PBRM1 expression (FIGS. 5A, 5B, and 5C).
(§3) Cell lines with wild-type SMARCA4 (H1975) were treated with DMSO or 0.001, 0.01, 0.1, 1, or 10 μm of Compounds 104, 105, 106, 107, or 108 and analyzed by western blot for SMARCA2, SMARCA4, and PBRM1 expression (FIGS. 6A and 6B).

By UniProt entry, the sequences of proteins in these tests, tags left out.
UniProt P51531, whole entry: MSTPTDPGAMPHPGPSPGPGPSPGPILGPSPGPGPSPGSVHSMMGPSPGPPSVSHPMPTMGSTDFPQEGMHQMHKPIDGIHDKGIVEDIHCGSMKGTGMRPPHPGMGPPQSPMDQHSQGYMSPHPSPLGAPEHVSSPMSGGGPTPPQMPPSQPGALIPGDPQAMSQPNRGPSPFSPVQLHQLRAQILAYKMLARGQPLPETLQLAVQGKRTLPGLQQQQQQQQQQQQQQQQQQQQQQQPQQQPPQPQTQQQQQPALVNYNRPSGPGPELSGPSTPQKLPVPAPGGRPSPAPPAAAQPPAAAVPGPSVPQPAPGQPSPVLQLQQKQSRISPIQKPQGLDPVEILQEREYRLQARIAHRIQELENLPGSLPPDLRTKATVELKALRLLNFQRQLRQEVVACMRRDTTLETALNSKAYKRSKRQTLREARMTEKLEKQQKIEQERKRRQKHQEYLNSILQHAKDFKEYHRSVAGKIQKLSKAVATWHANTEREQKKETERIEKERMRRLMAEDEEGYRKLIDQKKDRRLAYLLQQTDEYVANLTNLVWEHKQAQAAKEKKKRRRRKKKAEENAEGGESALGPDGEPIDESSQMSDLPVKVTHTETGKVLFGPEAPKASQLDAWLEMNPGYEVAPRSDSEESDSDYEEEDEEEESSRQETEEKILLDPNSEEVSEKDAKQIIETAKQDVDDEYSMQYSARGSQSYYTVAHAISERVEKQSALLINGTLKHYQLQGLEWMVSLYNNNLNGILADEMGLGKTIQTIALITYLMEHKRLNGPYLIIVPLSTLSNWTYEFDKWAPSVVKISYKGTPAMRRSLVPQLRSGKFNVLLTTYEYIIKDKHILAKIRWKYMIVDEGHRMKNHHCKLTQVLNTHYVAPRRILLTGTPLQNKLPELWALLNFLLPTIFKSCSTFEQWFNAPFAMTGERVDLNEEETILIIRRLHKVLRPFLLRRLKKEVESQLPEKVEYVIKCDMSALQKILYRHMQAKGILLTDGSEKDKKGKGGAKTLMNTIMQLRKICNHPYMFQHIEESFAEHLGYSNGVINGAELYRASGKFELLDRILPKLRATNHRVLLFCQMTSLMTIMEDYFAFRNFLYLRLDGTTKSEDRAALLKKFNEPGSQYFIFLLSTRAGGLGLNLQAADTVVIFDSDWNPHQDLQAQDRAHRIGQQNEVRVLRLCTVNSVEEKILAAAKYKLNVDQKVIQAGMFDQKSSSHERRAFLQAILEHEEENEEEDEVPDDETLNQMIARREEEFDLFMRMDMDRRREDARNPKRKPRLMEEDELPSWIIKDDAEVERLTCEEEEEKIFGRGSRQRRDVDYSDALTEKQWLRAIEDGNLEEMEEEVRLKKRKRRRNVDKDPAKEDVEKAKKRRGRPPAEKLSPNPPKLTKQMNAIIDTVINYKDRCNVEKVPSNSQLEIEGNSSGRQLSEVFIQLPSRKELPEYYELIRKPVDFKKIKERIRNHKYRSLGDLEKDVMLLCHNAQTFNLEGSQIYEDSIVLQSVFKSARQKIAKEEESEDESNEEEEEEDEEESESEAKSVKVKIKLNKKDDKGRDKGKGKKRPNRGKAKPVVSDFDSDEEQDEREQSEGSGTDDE
UniProt P51532, whole entry: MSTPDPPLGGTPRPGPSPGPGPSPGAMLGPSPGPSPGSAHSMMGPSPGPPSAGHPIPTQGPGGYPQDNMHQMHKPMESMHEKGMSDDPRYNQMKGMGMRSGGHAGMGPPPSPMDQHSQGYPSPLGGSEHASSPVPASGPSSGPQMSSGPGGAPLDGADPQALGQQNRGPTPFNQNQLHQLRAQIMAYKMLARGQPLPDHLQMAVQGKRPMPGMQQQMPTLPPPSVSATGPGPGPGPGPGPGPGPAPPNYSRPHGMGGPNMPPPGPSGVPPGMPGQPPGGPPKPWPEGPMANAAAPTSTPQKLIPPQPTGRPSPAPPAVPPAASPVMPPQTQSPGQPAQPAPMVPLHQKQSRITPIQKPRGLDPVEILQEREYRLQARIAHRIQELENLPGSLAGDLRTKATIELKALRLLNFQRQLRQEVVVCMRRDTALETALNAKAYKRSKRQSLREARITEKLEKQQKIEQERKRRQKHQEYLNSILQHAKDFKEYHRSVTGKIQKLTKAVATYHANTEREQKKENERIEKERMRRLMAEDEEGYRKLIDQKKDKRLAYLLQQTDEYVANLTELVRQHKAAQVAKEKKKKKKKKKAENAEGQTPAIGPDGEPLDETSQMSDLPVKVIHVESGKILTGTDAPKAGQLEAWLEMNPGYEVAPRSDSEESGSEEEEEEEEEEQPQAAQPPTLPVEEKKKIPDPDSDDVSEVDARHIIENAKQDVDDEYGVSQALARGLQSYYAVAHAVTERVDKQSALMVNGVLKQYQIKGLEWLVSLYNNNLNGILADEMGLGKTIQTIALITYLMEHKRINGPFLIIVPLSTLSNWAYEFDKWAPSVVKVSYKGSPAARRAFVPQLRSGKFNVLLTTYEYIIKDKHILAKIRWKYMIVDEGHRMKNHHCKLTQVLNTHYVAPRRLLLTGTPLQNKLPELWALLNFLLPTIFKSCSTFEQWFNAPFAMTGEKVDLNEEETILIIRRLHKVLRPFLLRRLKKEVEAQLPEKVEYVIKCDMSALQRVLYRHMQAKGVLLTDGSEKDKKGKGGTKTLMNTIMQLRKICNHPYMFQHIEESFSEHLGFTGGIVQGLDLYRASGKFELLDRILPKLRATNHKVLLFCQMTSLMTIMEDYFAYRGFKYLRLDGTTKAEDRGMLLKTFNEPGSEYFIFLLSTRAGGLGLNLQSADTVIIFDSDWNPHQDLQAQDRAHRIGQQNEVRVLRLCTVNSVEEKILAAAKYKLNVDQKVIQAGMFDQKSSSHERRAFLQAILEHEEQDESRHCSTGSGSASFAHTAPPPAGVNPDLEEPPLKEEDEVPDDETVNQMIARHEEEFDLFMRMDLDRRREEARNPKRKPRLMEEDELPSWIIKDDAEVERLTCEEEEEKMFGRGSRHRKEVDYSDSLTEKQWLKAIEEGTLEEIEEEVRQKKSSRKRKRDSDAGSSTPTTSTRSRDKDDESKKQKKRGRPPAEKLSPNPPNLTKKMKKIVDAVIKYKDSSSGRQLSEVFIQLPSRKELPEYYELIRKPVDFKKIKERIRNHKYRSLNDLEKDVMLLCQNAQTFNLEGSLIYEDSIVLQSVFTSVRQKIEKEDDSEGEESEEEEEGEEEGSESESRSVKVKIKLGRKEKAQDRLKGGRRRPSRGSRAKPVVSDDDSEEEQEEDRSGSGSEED
UniProt Q86U86, whole entry: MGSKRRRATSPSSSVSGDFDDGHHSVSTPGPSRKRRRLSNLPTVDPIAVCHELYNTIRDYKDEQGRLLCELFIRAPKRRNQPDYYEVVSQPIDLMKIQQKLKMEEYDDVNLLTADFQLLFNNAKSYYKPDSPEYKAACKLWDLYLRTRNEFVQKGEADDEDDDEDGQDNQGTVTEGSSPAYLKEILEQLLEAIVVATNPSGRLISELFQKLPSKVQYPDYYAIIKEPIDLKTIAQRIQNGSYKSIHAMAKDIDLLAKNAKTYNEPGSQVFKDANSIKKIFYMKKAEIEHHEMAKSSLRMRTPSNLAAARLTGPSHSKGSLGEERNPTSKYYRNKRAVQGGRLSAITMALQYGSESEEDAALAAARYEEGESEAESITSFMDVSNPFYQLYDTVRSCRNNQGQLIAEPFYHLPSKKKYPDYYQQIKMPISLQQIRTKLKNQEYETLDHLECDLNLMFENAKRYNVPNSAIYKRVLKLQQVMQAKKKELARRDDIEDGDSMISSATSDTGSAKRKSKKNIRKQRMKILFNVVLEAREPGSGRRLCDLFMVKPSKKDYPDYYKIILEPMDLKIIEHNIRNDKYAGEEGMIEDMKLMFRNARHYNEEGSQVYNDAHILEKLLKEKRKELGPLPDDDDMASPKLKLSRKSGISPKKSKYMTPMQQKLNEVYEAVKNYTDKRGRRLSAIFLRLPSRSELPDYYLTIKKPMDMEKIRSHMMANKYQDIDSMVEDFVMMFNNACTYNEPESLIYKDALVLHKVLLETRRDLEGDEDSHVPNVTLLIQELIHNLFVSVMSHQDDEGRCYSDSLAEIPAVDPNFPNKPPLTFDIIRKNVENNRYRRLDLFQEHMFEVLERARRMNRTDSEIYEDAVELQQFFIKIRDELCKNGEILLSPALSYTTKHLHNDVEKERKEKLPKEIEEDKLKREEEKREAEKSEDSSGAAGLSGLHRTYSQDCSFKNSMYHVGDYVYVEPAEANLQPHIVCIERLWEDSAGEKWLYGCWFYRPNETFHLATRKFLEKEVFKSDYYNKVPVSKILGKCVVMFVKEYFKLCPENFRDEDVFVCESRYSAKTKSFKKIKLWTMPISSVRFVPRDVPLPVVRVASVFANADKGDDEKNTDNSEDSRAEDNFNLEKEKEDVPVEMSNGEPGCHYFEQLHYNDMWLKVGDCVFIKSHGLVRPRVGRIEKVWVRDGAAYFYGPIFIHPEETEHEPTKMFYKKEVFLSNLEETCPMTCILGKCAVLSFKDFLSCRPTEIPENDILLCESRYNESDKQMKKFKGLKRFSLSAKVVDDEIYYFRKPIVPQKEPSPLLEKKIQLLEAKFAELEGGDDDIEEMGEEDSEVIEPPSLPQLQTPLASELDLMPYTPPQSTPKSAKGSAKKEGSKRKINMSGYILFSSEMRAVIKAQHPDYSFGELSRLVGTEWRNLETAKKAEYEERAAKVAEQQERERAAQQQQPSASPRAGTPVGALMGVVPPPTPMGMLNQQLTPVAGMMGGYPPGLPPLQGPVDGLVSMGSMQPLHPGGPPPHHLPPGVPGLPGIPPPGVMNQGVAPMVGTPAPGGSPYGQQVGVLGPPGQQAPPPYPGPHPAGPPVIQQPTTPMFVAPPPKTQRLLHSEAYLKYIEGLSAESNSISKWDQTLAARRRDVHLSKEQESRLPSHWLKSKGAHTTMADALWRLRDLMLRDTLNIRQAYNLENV

SMARCA4 = SMARCA4 (Homo sapiens, UniProt P51532); assay: SMARCA4 degradation in cell lines, western blot
PBRM1 = molecular target: T1, PBRM1 (Homo sapiens, UniProt Q86U86); assay: PBRM1 expression in cell lines, western blot
T1 construct: heterobifunctional compounds, which recruit endogenous proteins to a ubiquitin ligase for degradation; endogenous in cells; host or cells: H1792, H1299, H1975
Method: as §1, §2, §3

Compound: Nc1nnc(-c2ccccc2O)cc1N1CCN(Cc2cc(F)c(OCCOCCNc3cccc4c3C(=O)N(C3CCC(=O)NC3=O)C4=O)c(F)c2)CC1 (stereo not drawn) [Compound 104]
SMARCA2 degradation (western blot, in words) (SMARCA2): efficiently degraded SMARCA2
SMARCA4 degradation (western blot, in words) (SMARCA4): but not SMARCA4 or PBRM1
PBRM1 degradation (western blot, in words) (PBRM1): but not SMARCA4 or PBRM1

Compound: Nc1nnc(-c2ccccc2O)cc1N1CCN(Cc2ccc(OCCOCCNc3cccc4c3C(=O)N(C3CCC(=O)NC3=O)C4=O)c(F)c2F)CC1 (stereo not drawn) [Compound 105]
SMARCA2 degradation (western blot, in words) (SMARCA2): efficiently degraded SMARCA2
SMARCA4 degradation (western blot, in words) (SMARCA4): but not SMARCA4 or PBRM1
PBRM1 degradation (western blot, in words) (PBRM1): but not SMARCA4 or PBRM1

Second part, the compound after the results:

SMARCA2 degradation (western blot, in words) (SMARCA2): efficiently degraded SMARCA2
SMARCA4 degradation (western blot, in words) (SMARCA4): but not SMARCA4 or PBRM1
PBRM1 degradation (western blot, in words) (PBRM1): but not SMARCA4 or PBRM1
Compound: Nc1nnc(-c2ccccc2O)cc1N1CCN(Cc2cc(F)c(OCCOCCNc3cccc4c3C(=O)N(C3CCC(=O)NC3=O)C4=O)cc2F)CC1 (stereo not drawn) [Compound 106]

SMARCA2 degradation (western blot, in words) (SMARCA2): efficiently degraded SMARCA2
SMARCA4 degradation (western blot, in words) (SMARCA4): but not SMARCA4 or PBRM1
PBRM1 degradation (western blot, in words) (PBRM1): but not SMARCA4 or PBRM1
Compound: Nc1nnc(-c2ccccc2O)cc1N1CCN(Cc2c(F)cc(OCCOCCNc3cccc4c3C(=O)N(C3CCC(=O)NC3=O)C4=O)cc2F)CC1 (stereo not drawn) [Compound 107]

SMARCA2 degradation (western blot, in words) (SMARCA2): efficiently degraded SMARCA2
SMARCA4 degradation (western blot, in words) (SMARCA4): but not SMARCA4 or PBRM1
PBRM1 degradation (western blot, in words) (PBRM1): but not SMARCA4 or PBRM1
Compound: Nc1nnc(-c2ccccc2O)cc1N1CCN(Cc2ccc(CCCOCCNc3cccc4c3C(=O)N(C3CCC(=O)NC3=O)C4=O)c(F)c2)CC1 (stereo not drawn) [Compound 108]

Reference: US20250109121A1, “POTENT AND SELECTIVE SMARCA2 DEGRADING CHIMERIC MOLECULES AS CANCER THERAPEUTICS” (BOARD OF REGENTS, THE UNIVERSITY OF TEXAS SYSTEM, priority 2021, published 2025)
